Assay results taken from patent publication US11634384B2, “Prodrugs of phenolic TRPV1 agonists” (Concentric Analgesics, Inc., priority 2014, dated 2023).
Some entries share one result that the patent states for a list of compounds.

Test: Solubility assay in DI water
Type: physicochemical
Conditions: hydrogen chloride salts vs capsaicin
Description: In order to determine the aqueous solubility of the compounds described herein, the HCl salts of the following compounds were incubated at either 50 or 100 mg/mL in DI water followed by shaking for 24 hours. The solutions were then centrifuged and visually inspected for insoluble material. In all cases, no insoluble material was observed.

Compound: COc1cc(CNC(=O)CCCC/C=C/C(C)C)ccc1OC(=O)N(C)CCN [Compound 1, (E)-2-methoxy-4-((8-methylnon-6-enamido)methyl)phenyl (2-aminoethyl)(methyl)carbamate]
- increase in aqueous solubility from the parent compound, capsaicin: greater than 1560 fold

Compound: CNCCN(C)C(=O)Oc1ccc(CNC(=O)CCCC/C=C/C(C)C)cc1OC [Compound 2, (E)-2-methoxy-4-((8-methylnon-6-enamido)methyl)phenyl methyl(2-(methylamino)ethyl)carbamate]
- increase in aqueous solubility from the parent compound, capsaicin: greater than 1560 fold
